Drawing on patent US11511054B2, “Use of antistatic materials in the airway for thermal aerosol condensation process” (Alexza Pharmaceuticals, Inc., priority 2015, dated 2022), this text covers Airway deposition and Emitted dose for one compound.

The data set can be described thus: Airway deposition and aerosol charges for Permastat, Permastat Plus and standard airway material (Example 38). The settings on record: 1 mg, 28.3 LPM, single devices, listed as AZ002.

Where “and” joins values, the source holds several entries; their conditions need not be identical. Equal values may be shown once.

Consider `Cc1nnc2n1-c1ccc(Cl)cc1C(c1ccccc1)=NC2` [Alprazolam], for which, under “Permastat airway”, the Airway deposition is 0.2% and 0.1%; the Emitted dose was 96.6% and 96.1% and 96.2% and 95.7%. Further, for the setting “control (normal) airway”, the Airway deposition is 15.0% and 16.8% and 16.1% and 12.3%.
